Some of the results follow. Further columns of the screen follow, without active or inactive calls. Most of these compounds were active or inconclusive in the main read-out, so they are no random draw. The note in brackets gives the kind of curve behind each potency; many fits are weak.
Assay: qHTS Assay for Lipid Storage Modulators in Drosophila S3 Cells;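 for cell number change: cells counted by Cell Tracker Red CMTPX staining in the red channel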
Details: BODIPY lipid droplet fluorescence, 18-24 h; for cell number change: measured here: cell count max response, cells fed with added oleic acid
How it was run: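 Drosophila S3 cells loaded with oleic acid (400 uM, as added) and compounds at several concentrations; lipid droplets imaged by 488-nm laser-scanning cytometry, 500–530 nm intensity and object ratio to cell channel. Percent activity normalized to 20 uM Triacsin C.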

[1] = measured here: cell number channel AC50, cells fed with added oleic acid
[2] = measured here: lipid fluorescence (Fed channel) AC50, cells fed with added oleic acid

SMILES	cell number change [%]	AC50 [1]	AC50 [2]
O=C(CCSc1ccc(Cl)cc1)c1ccco1	-31.1	32.6 µM [falling, single point]	29.1 µM [falling, single point]
NC(=S)N=Nc1c(O)n(CCCl)c2ccc(Br)cc12	–	–	4.11 µM [rising, partial curve, poor fit]
COc1cccc(/C=C2\C(=O)N(c3cccc(C)c3)C(=O)c3ccccc32)c1	-19	4.61 µM [rising, single point]	6.51 µM [falling, partial curve]
O=C(NCC1COc2ccccc2O1)c1ccc(Br)s1 (centres undefined)	-35.7	2.59 µM [falling, full curve]	–
CCC(C)NC(=O)c1c(-c2cc(Cl)c(OC)c(Cl)c2)noc1C (centres undefined)	14.7	–	8.2 µM [rising, partial curve]
COc1cc2c(cc1OC)C(C)N(C(=O)Nc1cc(C)cc(C)c1)CC2 (centres undefined)	-57.2	7.31 µM [falling, partial curve]	6.51 µM [falling, single point]
Cc1cccc(NS(=O)(=O)c2ccc(-c3cnc(C4CC4)o3)cc2)c1	-41.8	29.1 µM [falling, single point]	–
COc1cccc(NC(=O)c2cc(C(=O)Nc3cccc(OC)c3)n(C)n2)c1	–	3.26 µM [falling, partial curve]	0.231 µM [falling, full curve]
COC(=O)c1ccccc1NC(=O)c1cc2n(n1)C(C(F)F)CC(C(F)F)N2 (centres undefined)	-20.1	–	0.291 µM [rising, partial curve]
Cc1ccccc1NC(=S)NCc1ccc(F)cc1	-13.2	–	18.4 µM [falling, single point]
Cc1nc(NC(=O)CSC2=NCCS2)sc1C(=O)N(C)C	34.6	20.6 µM [rising, partial curve, poor fit]	29.1 µM [rising, single point]
Cc1ccc(OCC(=O)Nc2ccc(-c3nc4ncccc4o3)cc2)c(C)c1	-130	25.9 µM [falling, single point]	29.1 µM [falling, single point]
O=C(C1CCN(C2CC(=O)N(c3ccc(F)cc3)C2=O)CC1)N1CCOCC1 (centres undefined)	-1.17	–	–
COc1cccc(N(C(=O)c2snc(C(N)=O)c2N)C(C(=O)NCC2CCCO2)c2c[nH]c3ccccc23)c1 (centres undefined)	-22.2	–	6.51 µM [falling, single point]
CCOCCCNC(=O)c1ccc2c(c1)ncn2-c1cccc(C)c1	36.2	4.61 µM [rising, partial curve]	23.1 µM [rising, single point]
COc1cccc2cc(S(=O)(=O)c3ccc(C)cc3)/c(=N/NS(=O)(=O)c3ccc(C)cc3)oc12	–	0.082 µM [rising, full curve, poor fit]	0.146 µM [rising, full curve, poor fit]
COc1ccc(NS(=O)(=O)c2ccc3c(c2)CCC(=O)N3)c(OC)c1	3.49	–	29.1 µM [rising, single point]
CCC(=O)Nc1ccc2c(c1)nc1n2CCSC1	-49.4	18.4 µM [falling, partial curve]	18.4 µM [rising, single point]
O=C(COc1ccccc1)Nc1ccc(-c2ccc(N3CCOCC3)nn2)cc1	2.51	–	1.84 µM [rising, partial curve]
O=C(COc1ccc2ccccc2c1)N1CCN(C(=O)c2ccc([N+](=O)[O-])cc2)CC1	53.1	29.1 µM [rising, single point]	29.1 µM [rising, partial curve, poor fit]

SMILES	cell number change [%]	AC50 [1]	AC50 [2]
Cc1cccc(C)c1NC(=O)CNC(=O)c1ccc(N2CCCC2=O)cc1	-11.9	–	6.51 µM [falling, single point]
CCCc1c(C)nc2ccccc2c1SCCC#N	-9.81	5.8 µM [rising, single point]	–
O=C(CSc1nnnn1C1CCCC1)N1CCCc2ccccc21	27.7	–	1.16 µM [rising, full curve]
O=C(Nc1ccc(-c2nnc(-c3ccccc3)o2)cc1)C1CCCO1 (centres undefined)	33.9	23.1 µM [rising, single point]	0.116 µM [rising, full curve, poor fit]
c1csc(-c2nnc(N3CCOCC3)c3ccccc23)c1	-3.35	–	–
O=C(Cn1c(C(=O)O)cc2ccccc21)c1ccccc1	5.11	–	3.66 µM [rising, full curve]
COCCn1c(SC(C)C(=O)NC2CCCCC2C)nc2ccccc2c1=O (centres undefined)	-13.3	–	–
COc1cccc(-c2nn(-c3ccccc3)cc2CO)c1	-14.4	–	1.03 µM [rising, full curve]
NC(=O)N/N=C/c1cccc(C(F)(F)F)c1	4.48	–	0.82 µM [falling, single point]
c1ccc(OCc2nn3c(-c4ccccn4)nnc3s2)cc1	12.5	0.00461 µM [rising, full curve, poor fit]	32.6 µM [rising, single point]
Cc1cccc(-n2c(-c3ccco3)n[nH]c2=S)c1	22.7	–	0.731 µM [falling, full curve]
O=C(O)CSCC(=O)NCc1ccc(Cl)cc1Cl	7.01	–	6.51 µM [falling, single point]
CCOC(=O)c1ccc(NC(=S)N2CCC(C(N)=O)(N3CCCCC3)CC2)cc1	17.5	–	20.6 µM [falling, single point]
CN(c1ccccc1)S(=O)(=O)c1cccc(NS(=O)(=O)c2ccc(/C=C/C(=O)O)cc2)c1	55.3	29.1 µM [rising, partial curve, poor fit]	–
CC(=O)Nc1cccc(NC(C)=O)n1	–	–	1.46 µM [falling, partial curve]
COc1cc(OC)cc(C(=O)N2CCN(c3ccc(N4CCOCC4)nn3)CC2)c1	-23.2	–	–
CC(=O)Nc1ccc(S(=O)(=O)N(C)CC(=O)N/N=C/c2ccc(C(=O)O)cc2)cc1	3.23	–	3.66 µM [rising, full curve]
Cc1ccc(NS(=O)(=O)c2c(C)[nH]c(=O)[nH]c2=O)cc1C	-48.8	0.58 µM [falling, full curve]	2.31 µM [falling, full curve]
CCOC(=O)c1c(NC(=O)COc2ccccc2F)sc2c1CC(C)(C)NC2(C)C	18.6	–	0.00461 µM [falling, full curve, poor fit]
COc1cccc(CNC(=O)CCCC(=O)NC(C)CCc2ccccc2)c1 (centres undefined)	0.872	–	16.4 µM [falling, single point]

SMILES	cell number change [%]	AC50 [1]	AC50 [2]
CCN(CC)c1ccc(-n2c(C)c(C(C)=O)c(C(C)=O)c2C)cc1	-21.3	–	–
CCOC(=O)Nc1nc(-c2ccccc2)c(C(=O)c2ccc(Cl)cc2)s1	6.12	–	–
O=C(Nc1ccc(F)cc1)Nc1cc(S(=O)(=O)N2CCOCC2)ccc1N1CCCC1	-20.3	0.00517 µM [falling, full curve, poor fit]	2.59 µM [falling, full curve, poor fit]
O=C1c2ccccc2C(O)(c2ccccc2)N1c1ccncc1 (centres undefined)	-3.02	–	0.0517 µM [rising, full curve, poor fit]
COc1ccc(-n2c(-c3ccc(C)cc3)n[nH]c2=S)cc1	0.999	–	0.00517 µM [falling, full curve, poor fit]
Cc1cccc(NC(=O)CSc2nnc(-c3ccco3)c(-c3ccco3)n2)c1	21.6	–	5.17 µM [rising, full curve, poor fit]
Cc1c(NC(=O)CN2CCN(c3ccc([N+](=O)[O-])cc3)CC2)c(=O)n(-c2ccccc2)n1C	23	–	–
Cc1sc2nc(SCC(=O)NCCCO)n(-c3ccccc3)c(=O)c2c1C	25.9	–	6.51 µM [rising, partial curve, poor fit]
N#C/C(=N/O)c1nc(-c2ccc(F)cc2)cs1	-30.6	23.1 µM [falling, single point]	–
CC(C)Cn1c(N)c(C(=O)CSc2ccc3c(c2)OCCO3)c(=O)n(C)c1=O	-25.9	–	–
CN(C(=O)CSc1nc2c(cnn2-c2ccccc2)c(=O)[nH]1)C1CCS(=O)(=O)C1 (centres undefined)	-18.3	–	23.1 µM [falling, single point]
CC(=O)N1c2ccc(S(=O)(=O)N3CCC(C(=O)NCCc4ccc(Cl)cc4)CC3)cc2CC1C (centres undefined)	-31.2	32.6 µM [falling, single point]	0.0058 µM [rising, full curve, poor fit]
COC(=O)c1ccc(/C=N/NC(=O)C(=O)NCc2ccccc2)cc1	-36.4	18.4 µM [falling, single point]	29.1 µM [falling, partial curve]
COc1ccc(N2CCN(c3nc4ccc(C)cn4c(=O)c3C=O)CC2)cc1	-1.03	1.78 µM [falling, partial curve]	–
CCN(CC(=O)Nc1c(F)cccc1F)C(=O)CN1C(=O)c2ccccc2C1=O	4.5	–	–
O=C(CSc1nnc(NC(=O)C2CC2)s1)Nc1ccccc1Cl	28.2	–	29.1 µM [rising, single point]
COc1ccccc1-c1nc(=S)c(C(C)=O)c(C)[nH]1	3.13	–	0.184 µM [rising, full curve, poor fit]
COc1ccc(/C=C/C(=O)c2cc(F)ccc2OC(=O)c2ccccc2C)cc1OC	–	0.058 µM [rising, full curve, poor fit]	8.2 µM [falling, partial curve, poor fit]

Arranged by molecular weight (ascending): some entries from above
SMILES	cell number change [%]	AC50 [1]	AC50 [2]
O=C(CCSc1ccc(Cl)cc1)c1ccco1	-31.1	32.6 µM [falling, single point]	29.1 µM [falling, single point]
c1ccc(OCc2nn3c(-c4ccccn4)nnc3s2)cc1	12.5	0.00461 µM [rising, full curve, poor fit]	32.6 µM [rising, single point]
COC(=O)c1ccc(/C=N/NC(=O)C(=O)NCc2ccccc2)cc1	-36.4	18.4 µM [falling, single point]	29.1 µM [falling, partial curve]
NC(=S)N=Nc1c(O)n(CCCl)c2ccc(Br)cc12	–	–	4.11 µM [rising, partial curve, poor fit]

From PubChem BioAssay AID2685 (National Center for Advancing Translational Sciences (NCATS), 2010)
